Measurements reported in PubChem BioAssay AID1259308 (NCATS, 2017).
Here is an unselected part of about 59,000 deposited reagents. In the full data, about 1,510 (2.6%) are marked active. 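Calls use total luciferase alone and ignore viability, so some active siRNAs may act by altering cell number.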 The numbers tell different reagents against one gene apart. Not all columns of the deposit are shown.

Screen: 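Candidate targets for better recombinant protein yield in mammalian cells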 (primary screen)
Cells: human HEK293 embryonic kidney cells stably expressing firefly luciferase (HEK-CMV-Luc2-Hygro)
Reagent: single siRNA against human genes, 0.8 pmol siRNA per well
Duration: 72 h
Measured: 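Reporter luminescence and viable-cell signal on separate replicate plates, given as percent of non-targeting control and median/MAD z-scores, plus per-cell luciferase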
Scale: total luciferase, z-score and total luciferase, % of control: higher = more reporter protein produced
Rule for the call: 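Active when the median/MAD z-score for overall luciferase is greater than 3; a gene was taken forward for validation with new siRNAs if at least two of its three siRNAs passed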
Calls: active = raised luciferase; inactive = no rise

The first 6 records, to show the layout:
gene symbol	reagent no.	total luciferase, z-score	total luciferase, % of control	Call
TPO (thyroid peroxidase)	1	1.51	112	inactive
TPO (thyroid peroxidase)	2	-1.24	57.1	inactive
TPO (thyroid peroxidase)	3	0.761	97	inactive
RCC1L (RCC1 like)	1	-1.13	59.4	inactive
RCC1L (RCC1 like)	2	-0.268	76.6	inactive
RCC1L (RCC1 like)	3	-0.553	70.9	inactive

The list itself, from the first entry:
gene symbol	reagent no.	total luciferase, z-score	total luciferase, % of control	Call
TPO (thyroid peroxidase)	1	1.51	112	inactive
TPO (thyroid peroxidase)	2	-1.24	57.1	inactive
TPO (thyroid peroxidase)	3	0.761	97	inactive
RCC1L (RCC1 like)	1	-1.13	59.4	inactive
RCC1L (RCC1 like)	2	-0.268	76.6	inactive
RCC1L (RCC1 like)	3	-0.553	70.9	inactive
RCC1L (RCC1 like)	4	0.337	88.6	inactive
RCC1L (RCC1 like)	5	-0.529	71.4	inactive
RCC1L (RCC1 like)	6	0.0357	82.6	inactive
THAP11 (THAP domain containing 11)	1	0.744	96.7	inactive
THAP11 (THAP domain containing 11)	2	-0.505	71.8	inactive
THAP11 (THAP domain containing 11)	3	0.766	97.1	inactive
CPA2 (carboxypeptidase A2)	1	-0.0443	81	inactive
CPA2 (carboxypeptidase A2)	2	-0.567	70.6	inactive
CPA2 (carboxypeptidase A2)	3	-0.51	71.7	inactive
BTF3P16 (basic transcription factor 3 pseudogene 16)	1	0.513	92.1	inactive
BTF3P16 (basic transcription factor 3 pseudogene 16)	2	-1.24	57.1	inactive
BTF3P16 (basic transcription factor 3 pseudogene 16)	3	1.76	117	inactive
ASB10 (ankyrin repeat and SOCS box containing 10)	1	0.657	95	inactive
ASB10 (ankyrin repeat and SOCS box containing 10)	2	-1.22	57.6	inactive
ASB10 (ankyrin repeat and SOCS box containing 10)	3	1.03	102	inactive
PLSCR3 (phospholipid scramblase 3)	1	0.542	92.7	inactive
PLSCR3 (phospholipid scramblase 3)	2	-0.487	72.2	inactive
PLSCR3 (phospholipid scramblase 3)	3	-0.705	67.9	inactive
RHEBL1 (RHEB like 1)	1	-0.758	66.8	inactive
RHEBL1 (RHEB like 1)	2	2.21	126	inactive
RHEBL1 (RHEB like 1)	3	1.21	106	inactive
HYCC2 (hyccin PI4KA lipid kinase complex subunit 2)	1	0.498	91.8	inactive
HYCC2 (hyccin PI4KA lipid kinase complex subunit 2)	2	-0.531	71.3	inactive
HYCC2 (hyccin PI4KA lipid kinase complex subunit 2)	3	0.0409	82.7	inactive
FHOD1 (formin homology 2 domain containing 1)	1	-2.26	37	inactive
FHOD1 (formin homology 2 domain containing 1)	2	-0.992	62.2	inactive
FHOD1 (formin homology 2 domain containing 1)	3	2.6	134	inactive
AOC2 (amine oxidase copper containing 2)	1	-1.05	61	inactive
AOC2 (amine oxidase copper containing 2)	2	0.708	96	inactive
AOC2 (amine oxidase copper containing 2)	3	-0.266	76.6	inactive
PRF1 (perforin 1)	1	0.764	97.1	inactive
PRF1 (perforin 1)	2	-0.574	70.5	inactive
PRF1 (perforin 1)	3	3.41	150	active
WFDC9 (WAP four-disulfide core domain 9)	1	-1.72	47.7	inactive
WFDC9 (WAP four-disulfide core domain 9)	2	-0.817	65.6	inactive
WFDC9 (WAP four-disulfide core domain 9)	3	0.939	101	inactive
LUZP1 (leucine zipper protein 1)	1	-0.419	73.5	inactive
LUZP1 (leucine zipper protein 1)	2	0.603	93.9	inactive
LUZP1 (leucine zipper protein 1)	3	0.918	100	inactive
SKA2P1	1	2.43	130	inactive
SKA2P1	2	-0.698	68	inactive
SKA2P1	3	0.822	98.2	inactive
COMMD10 (COMM domain containing 10)	1	-1.4	54	inactive
COMMD10 (COMM domain containing 10)	2	0.396	89.8	inactive
COMMD10 (COMM domain containing 10)	3	-1.1	59.9	inactive
MAP3K10 (mitogen-activated protein kinase kinase kinase 10)	1	-2.35	35.2	inactive
MAP3K10 (mitogen-activated protein kinase kinase kinase 10)	2	0.723	96.3	inactive
MAP3K10 (mitogen-activated protein kinase kinase kinase 10)	3	-1.32	55.6	inactive
SGF29 (SAGA complex associated factor 29)	1	1.21	106	inactive
SGF29 (SAGA complex associated factor 29)	2	0.813	98.1	inactive
SGF29 (SAGA complex associated factor 29)	3	2.34	128	inactive
